Test results published in PubChem BioAssay AID504834 (National Center for Advancing Translational Sciences (NCATS), 2011).
Among all 320,000 compounds or so, about 22,000 (6.9%) were called active. This list was built around the results that the source calls inconclusive (neither active nor inactive); the mix of calls is not that of the screen. Calls come from the whole dose curve; as a rule, active = well fitted inhibition curve with a large enough effect; inconclusive = small, poorly fitted or top-dose-only effect, or another doubt; inactive = no such curve, though single readings can be large or run the other way. A potency beside an inconclusive call is a rough fit, not a confirmed value.

Assay: Primary qHTS for delayed death inhibitors of the malarial parasite plastid, 96 hour incubation
Details: P. falciparum luciferase reporter growth; series mostly up to 28.7 µM; activity change, negative = inhibition: at the top concentration
Procedure, shortened: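 Parasite growth measured via integrated firefly luciferase reporter in P. falciparum. Infected erythrocytes at 2% hematocrit, 0.05% parasitemia final were treated 96 hours at 37 C under 5% CO2, and luminescence was read.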
% is set by controls: 0 for no effect and ±100 for the full control effect; potency is the fitted concentration of half-maximal effect.

| Structure (SMILES) | Potency | activity change, negative = inhibition |
| --- | --- | --- |
| CCOc1cc(N2CCOCC2)c(OCC)cc1NC(=O)c1ccc(OC)cc1 | inconclusive: 5.86 µM [inhibitor, partial curve, poor fit] | – |
| CCCOc1ccc(-c2nc(N3CCN(C)CC3)c3ccccc3n2)cc1 | inconclusive: 16.5 µM [inhibitor, single point] | – |
| COc1ccc(NC(=O)NC(=O)c2cc(OCC(F)(F)F)ccc2OCC(F)(F)F)cc1 | inconclusive: 11.7 µM [inhibitor, single point] | – |
| O=C(Cn1c(=O)c(=O)n(Cc2ccccc2)c2ccc(Cl)cc21)Nc1cccc(F)c1 | active: 13.1 µM | – |
| CCOC(=O)c1nn(-c2cccc(Cl)c2)c2nc(CC(C)C)c(C#N)c(=O)n12 | inconclusive: 11.7 µM [inhibitor, single point] | – |
| CC(=O)N1CCN(c2ccc(S(C)(=O)=O)cc2[N+](=O)[O-])CC1 | – | inactive: 6.71% |
| Cc1c(C(=O)Nc2ccc3c(c2)OCCO3)sc2ncnc(N3CCCCC3C)c12 (centres undefined) | – | inactive: 0% |
| CN1CCN(CCN2CCn3c2nc2ccccc23)CC1 | inconclusive: 13.1 µM [inhibitor, single point] | – |
| COC/C=C/C1=CC2=CC(=O)C(C)(OC(=O)c3cnc4ccccc4n3)C(=O)C2=CN1C1CCCCC1 (centres undefined) | – | inactive: 0% |
| Cc1sc2ncnc(Sc3nnc4sc5ccccc5n34)c2c1C | inconclusive: 1.65 µM [inhibitor, full curve, poor fit] | – |
| CCC(C)NC(=O)/C=C1\Sc2ccccc2NC1=O (centres undefined) | inconclusive: 18.5 µM [inhibitor, single point] | – |
| COc1ccc(CCC(C)N2CCC(CO)(Cc3ccccc3)CC2)cc1 (centres undefined) | – | inactive: -80% |
| COc1ccc(S(=O)(=O)N2CCN(C(=O)c3cc(C)oc3C)CC2)cc1 | inconclusive: 11.7 µM [inhibitor, single point] | – |
| CCn1cc(C(=O)OCc2ccccc2)c(=O)c2ccc(C)nc21 | – | inactive: -25.8% |
| CCOc1ccccc1OCCC(=O)N1CCN(S(=O)(=O)c2ccccc2[N+](=O)[O-])CC1 | inconclusive: 10.4 µM [inhibitor, partial curve, poor fit] | – |
| COc1ccc(C(c2nnnn2C2CCCC2)N2CCN(c3ccccc3)CC2)cc1 (centres undefined) | inconclusive: 18.5 µM [inhibitor, single point] | – |
| COC(=O)c1cc(NC(=O)c2cc(-c3ccc(C(F)(F)F)cc3)oc2C(F)(F)F)ccc1N1CCOCC1 | active: 1.47 µM | – |
| COc1ccccc1-c1cc(C(=O)NC(C)C)no1 | – | inactive: 39% |
| COc1cc(C2C(C(=O)c3ccc(C)o3)=C(O)C(=O)N2CCN2CCOCC2)ccc1OCCC(C)C (centres undefined) | inconclusive: 18.5 µM [inhibitor, single point] | – |
| COc1ccccc1N1CC(C(=O)NCCC2=CCCCC2)CC1=O (centres undefined) | inconclusive: 18.5 µM [inhibitor, single point] | – |
| O=C(c1ccccc1)c1ccc(Oc2ncccn2)cc1 | – | inactive: -34.6% |
| Cc1ccc(NC(=O)Nc2nnc(CSCCOc3ccc(Cl)cc3)s2)cc1 | inconclusive: 18.5 µM [inhibitor, single point] | – |
| COc1ccc(-c2ccc(C#N)c(SCC(=O)NCc3ccco3)n2)cc1OC | inconclusive: 2.33 µM [inhibitor, full curve] | – |

Quoted at random: four records from the list, in no set order.

| Structure (SMILES) | Potency | activity change, negative = inhibition |
| --- | --- | --- |
| COC/C=C/C1=CC2=CC(=O)C(C)(OC(=O)c3cnc4ccccc4n3)C(=O)C2=CN1C1CCCCC1 (centres undefined) | – | inactive: 0% |
| CCCOc1ccc(-c2nc(N3CCN(C)CC3)c3ccccc3n2)cc1 | inconclusive: 16.5 µM [inhibitor, single point] | – |
| Cc1ccc(NC(=O)Nc2nnc(CSCCOc3ccc(Cl)cc3)s2)cc1 | inconclusive: 18.5 µM [inhibitor, single point] | – |
| O=C(Cn1c(=O)c(=O)n(Cc2ccccc2)c2ccc(Cl)cc21)Nc1cccc(F)c1 | active: 13.1 µM | – |

Additional compounds follow.

| Structure (SMILES) | Potency | activity change, negative = inhibition |
| --- | --- | --- |
| CCC(C(=O)NCc1ccco1)N(C(=O)CNS(=O)(=O)c1ccc(F)cc1)c1ccccc1F (centres undefined) | inconclusive: 9.28 µM [inhibitor, partial curve] | – |
| CN(CCOc1ccccc1)CC(=O)Nc1ccc(Br)cc1F | – | inactive: 56.4% |
| COc1nc(N/N=C/c2ccc(-c3ccccc3[N+](=O)[O-])o2)nc(N2CCOCC2)n1 | inconclusive: 6.57 µM [inhibitor, partial curve, poor fit] | – |
| CCOc1ccc(C2c3[nH]c4ccccc4c3C[C@H]3C(=O)N(C4CC4)CC(=O)N23)cc1OC (some centres undefined) | inconclusive: 4.65 µM [inhibitor, partial curve, poor fit] | – |
| Cc1ccc(OCC(=O)N/N=C\c2ccco2)c(C)c1 | inconclusive: 18.5 µM [inhibitor, single point] | – |
| Cc1ccc(O)c(NC(=O)C2=CC(c3cccs3)=NS(=O)(=O)N2C)c1 | inconclusive: 5.86 µM [inhibitor, partial curve, poor fit] | – |
| COc1ccc(C2C(=O)c3ccccc3C2=O)cc1OC | inconclusive: 18.5 µM [inhibitor, single point] | – |
| CCCCC(=O)O[C@]1(C(=O)CO)[C@H](C)C[C@H]2[C@@H]3CCC4=CC(=O)C=C[C@]4(C)[C@@]3(F)[C@@H](O)C[C@@]21C | inconclusive: 16.9 µM [inhibitor, single point] | – |
| O=C(COC(=O)c1ccc(O)cc1O)c1ccc(Cl)cc1 | inconclusive: 18.5 µM [inhibitor, single point] | – |
| COc1ccc(CN(C(=O)c2ccccc2OC)C2CCS(=O)(=O)C2)cc1 (centres undefined) | – | inactive: 0.972% |
| COc1ccc(OC)c(CN2CCN(C(=O)c3ccco3)CC2)c1 | inconclusive: 18.5 µM [inhibitor, partial curve, poor fit] | – |
| C=CCNC(=O)c1ccccc1NS(=O)(=O)c1ccccc1 | active: 9.28 µM | – |
| COc1ccc(NC2CCCN(C(=O)CCc3ccncc3)C2)cc1OC (centres undefined) | – | inactive: -22.6% |
| O=C1CC(N2CCN(c3ccc(Cl)cc3)CC2)C(=O)N1c1ccccc1 (centres undefined) | – | inactive: 178% |
| Cc1[nH]cnc1C(=O)N/N=C/c1c(Cl)cccc1Cl | – | inactive: 22.5% |
| COc1ccc(N2CCN(C(=O)NC3CC(=O)N(c4ccc(OC)cc4)C3)CC2)cc1 (centres undefined) | inconclusive: 18.5 µM [inhibitor, single point] | – |
| CCOc1ccc(NC(=O)CSc2nc3ccccc3nc2N2CCCC2)cc1 | active: 11.7 µM | – |
| O=C(COc1cccc2cccnc12)N/N=C/c1cccn1-c1ccc(F)cc1 | inconclusive: 9.28 µM [inhibitor, single point] | – |
| CC#CC[N+](C)(C)CCCCCCCC | inconclusive: 1.65 µM [inhibitor, full curve] | – |
| Cc1ccc(NCC(=O)N/N=C/c2cccc(Br)c2)cc1 | inconclusive: 9.28 µM [inhibitor, single point] | – |
| COc1cccc(N2CCN(C(=O)C3C4C=CC5(CN(Cc6ccccc6Cl)C(=O)C35)O4)CC2)c1 (centres undefined) | inconclusive: 11.7 µM [inhibitor, partial curve, poor fit] | – |
| COc1ccnc(Oc2ccc(F)cc2)c1C(=O)N/C=N/OCc1c(Cl)cccc1Cl | inconclusive: 0.0037 µM [inhibitor, full curve, poor fit] | – |
| COC(=O)c1cccc(C23CC4(C2)[C@H](CN(Cc2ccc(-c5ccccc5)cc2)[C@@H]4c2ccccc2)C3c2ccccc2)c1 (some centres undefined) | active: 1.65 µM | – |

| Structure (SMILES) | Potency | activity change, negative = inhibition |
| --- | --- | --- |
| CNC(=O)c1c(C)nn(-c2ccc(F)c(Cl)c2)c1-c1cc(C)on1 | – | inactive: -12% |
| CC(C)(C)NC(=O)/C=C/c1cccs1 | – | inactive: 76.8% |
| COc1ccc(C(=O)NC(=S)Nc2nc(-c3ccc(OC)c(Br)c3)cs2)cc1Br | inconclusive: 11.7 µM [inhibitor, single point] | – |
| CC(NC(=O)c1cc(-c2cccs2)on1)c1ccccc1 (centres undefined) | – | inactive: -98.3% |
| CC(C)c1ccc(S(=O)(=O)c2nnn3c2nc(N2CCCCC2)c2ccccc23)cc1 | inconclusive: 4.15 µM [inhibitor, single point] | – |
| Cc1nnc(SCCn2c(Br)nc3c2c(=O)[nH]c(=O)n3C)s1 | inconclusive: 0.0657 µM [inhibitor, full curve, poor fit] | – |
| CC(C)(C)C(=O)Nc1ccccc1C(=O)Nc1cc(Cl)ccc1Cl | active: 4.15 µM | – |
| CCOC(=O)C1(CC2CCCCO2)CCN(C(=O)Nc2cccc(SC)c2)CC1 (centres undefined) | inconclusive: 2.08 µM [inhibitor, full curve, poor fit] | – |
| CC(=O)C1=C(O)C(=O)OC1c1ccc(C)cc1 (centres undefined) | inconclusive: 16.5 µM [inhibitor, single point] | – |
| Cc1ccc(Cn2c(=O)c3c(ncn3C)n(C)c2=O)cc1 | inconclusive: 18.5 µM [inhibitor, single point] | – |
| OC1(c2ccccn2)COc2ccccc2O1 (centres undefined) | – | inactive: 86.8% |
| O=C(CC12CC3CC(CC(C3)C1)C2)Nc1cccc2ncccc12 | inconclusive: 18.5 µM [inhibitor, single point] | – |
| CCCC(=O)Nc1ccc(S(=O)(=O)N2CCC(c3nc4ccccc4[nH]3)CC2)cc1 | active: 5.22 µM | – |
| O=C(/C=C/c1ccc(Br)o1)Nc1nccs1 | – | inactive: 181% |
| CC(C)(C)NC(=O)CSc1ccc(C(C)(C)C)cc1 | inconclusive: 11.7 µM [inhibitor, partial curve, poor fit] | – |
| O=C(Nc1ccc(Cl)c(S(=O)(=O)N2CCOCC2)c1)c1ccccc1-c1ccc(C(F)(F)F)cc1 | inconclusive: 10.4 µM [inhibitor, single point] | – |
| COc1ccc(C(=O)NC(=S)NNC(=O)c2cnccn2)cc1 | inconclusive: 11.7 µM [inhibitor, single point] | – |
| Cn1cccc1Cc1nnc(SCC(=O)N2CCc3ccccc32)n1CCc1ccccc1 | inconclusive: 11.7 µM [inhibitor, single point] | – |
| N#CC(NC(=O)OCc1ccccc1)c1ccccc1 (centres undefined) | – | inactive: 50.3% |
| Cc1ccc(N2C(=O)N(CC(=O)N3CCOCC3)C(=O)C2C)cc1 (centres undefined) | – | inactive: 10.1% |
| CC1CCCCC1NC(=S)NC(=O)c1cccs1 (centres undefined) | inconclusive: 11.7 µM [inhibitor, single point] | – |
| Cc1cc(C)n2nc(SCc3nnc(SCc4ccccc4)s3)nc2n1 | inconclusive: 20.8 µM [inhibitor, partial curve, poor fit] | – |
| O=C(N[C@@H](Cc1c[nH]c2ccccc12)C(=O)O)c1ccccc1Cl | – | inactive: 0% |
